Experimental findings from publication PMC11078642 are described below.

Protein sequences, listed by entry. Tags and fused reporters are not part of them.
UniProt P35222: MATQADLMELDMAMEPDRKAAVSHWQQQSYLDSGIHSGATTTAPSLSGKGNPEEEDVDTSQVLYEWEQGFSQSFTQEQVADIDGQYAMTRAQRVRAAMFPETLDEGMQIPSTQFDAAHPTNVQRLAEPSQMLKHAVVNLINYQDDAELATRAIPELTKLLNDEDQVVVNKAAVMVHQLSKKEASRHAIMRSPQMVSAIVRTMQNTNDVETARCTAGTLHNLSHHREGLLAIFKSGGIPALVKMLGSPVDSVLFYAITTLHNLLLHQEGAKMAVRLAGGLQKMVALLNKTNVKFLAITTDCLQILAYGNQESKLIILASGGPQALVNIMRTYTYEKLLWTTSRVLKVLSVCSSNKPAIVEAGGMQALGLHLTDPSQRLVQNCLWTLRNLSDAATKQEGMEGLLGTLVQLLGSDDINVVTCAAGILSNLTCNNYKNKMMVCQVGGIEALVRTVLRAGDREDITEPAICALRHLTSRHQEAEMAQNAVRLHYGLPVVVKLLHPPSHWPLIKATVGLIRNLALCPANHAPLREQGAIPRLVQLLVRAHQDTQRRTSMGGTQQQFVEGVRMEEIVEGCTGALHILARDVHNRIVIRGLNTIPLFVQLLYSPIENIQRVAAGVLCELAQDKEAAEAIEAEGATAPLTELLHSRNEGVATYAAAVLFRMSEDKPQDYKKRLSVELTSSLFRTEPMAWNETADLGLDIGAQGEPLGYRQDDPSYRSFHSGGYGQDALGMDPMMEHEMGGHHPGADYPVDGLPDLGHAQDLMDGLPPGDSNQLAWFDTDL
UniProt Q14244: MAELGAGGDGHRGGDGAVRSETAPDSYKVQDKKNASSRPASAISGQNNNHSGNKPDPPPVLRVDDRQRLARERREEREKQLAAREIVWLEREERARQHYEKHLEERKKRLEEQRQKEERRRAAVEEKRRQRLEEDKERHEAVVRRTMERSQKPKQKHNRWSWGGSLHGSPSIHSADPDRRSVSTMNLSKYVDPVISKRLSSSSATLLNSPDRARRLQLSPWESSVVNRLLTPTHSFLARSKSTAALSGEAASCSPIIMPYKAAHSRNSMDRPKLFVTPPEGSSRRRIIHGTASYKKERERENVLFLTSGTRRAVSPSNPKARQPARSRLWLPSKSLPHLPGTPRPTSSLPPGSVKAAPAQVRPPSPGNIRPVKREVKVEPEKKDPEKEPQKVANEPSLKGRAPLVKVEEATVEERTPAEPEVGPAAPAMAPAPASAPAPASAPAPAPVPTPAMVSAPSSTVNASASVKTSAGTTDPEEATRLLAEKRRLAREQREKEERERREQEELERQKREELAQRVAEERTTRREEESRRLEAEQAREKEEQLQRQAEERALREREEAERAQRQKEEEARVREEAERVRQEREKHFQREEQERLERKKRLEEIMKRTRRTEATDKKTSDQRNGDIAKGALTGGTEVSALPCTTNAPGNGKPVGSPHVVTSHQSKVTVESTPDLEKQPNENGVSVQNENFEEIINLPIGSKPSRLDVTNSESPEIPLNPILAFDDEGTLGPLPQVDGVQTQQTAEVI

Results are given in words; binding and its absence hold for the method and conditions named. In cells and extracts the contact can be indirect. Some entries that bind do so weakly or less than the wild type.

The target in assay [1] is β-catenin (human (endogenous in A2780)) (UniProt P35222). Kind of assay: co-IP; endogenous proteins; 1 mg total protein of A2780-DDP (cisplatin-resistant) and parental A2780 cells in 1 mL IP buffer with protease inhibitors; 10 μg antibody (anti-MAP7, anti-β-catenin or anti-CBY1) or control IgG; Protein A/G agarose beads, room temperature 2 h; Western blot.
For assay [2], the target named is CBY1 (Chibby family member 1) (human (endogenous in A2780)) (UniProt Q9Y3M2). Described as above.

As to “Microtubule-associated protein 7 (MAP7) (from UniProt Q14244 1-749)”, the figures for the binding result in assay [1] and in assay [2] were “binds weakly” and “binds”, respectively.

For β-catenin (from UniProt P35222 1-781), the binding entry in assay [2] is “binds”.
